Results are given in words; binding and its absence hold for the method and conditions named. In cells and extracts the contact can be indirect. Some entries that bind do so weakly or less than the wild type.

By UniProt entry, the sequences of proteins in these tests, tags left out. Residues count along the entry.
UniProt Q9QUK6, residues 661-835: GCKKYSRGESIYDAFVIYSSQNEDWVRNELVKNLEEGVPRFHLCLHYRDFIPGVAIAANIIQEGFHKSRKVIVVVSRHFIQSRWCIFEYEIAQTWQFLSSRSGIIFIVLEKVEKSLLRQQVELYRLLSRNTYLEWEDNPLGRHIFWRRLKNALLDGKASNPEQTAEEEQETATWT
UniProt Q8BJQ4: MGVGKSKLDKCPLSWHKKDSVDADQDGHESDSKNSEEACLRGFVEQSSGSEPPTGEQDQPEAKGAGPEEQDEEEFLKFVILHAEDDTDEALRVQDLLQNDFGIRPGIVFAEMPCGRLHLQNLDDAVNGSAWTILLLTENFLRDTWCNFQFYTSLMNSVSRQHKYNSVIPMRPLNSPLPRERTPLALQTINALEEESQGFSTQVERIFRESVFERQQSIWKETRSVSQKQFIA
UniProt P22366: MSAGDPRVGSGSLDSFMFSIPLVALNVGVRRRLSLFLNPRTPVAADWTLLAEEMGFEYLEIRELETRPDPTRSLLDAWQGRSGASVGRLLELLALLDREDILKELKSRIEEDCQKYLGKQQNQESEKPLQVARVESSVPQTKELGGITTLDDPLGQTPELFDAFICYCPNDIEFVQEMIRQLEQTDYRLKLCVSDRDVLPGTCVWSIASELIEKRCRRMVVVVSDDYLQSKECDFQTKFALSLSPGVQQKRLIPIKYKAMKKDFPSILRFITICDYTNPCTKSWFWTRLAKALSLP

In this assay the target is GST fused to the TLR4 cytoplasmic tail (mouse TLR4 amino acids 661-835) (mouse) (UniProt Q9QUK6). Kind of assay: pull-down; GST-TLR4 or GST co-expressed in HEK293T with Flag-TRAM and increasing amounts of Myc-MyD88; lysis in TNE buffer (10 mM Tris-HCl pH 7.5, 150 mM NaCl, 1 mM EDTA, 1% NP-40); Glutathione-Sepharose beads 30 min at 4°C; Western blot with anti-Flag, anti-Myc, anti-GST. Background: Immunoblotting shows a protein as a band on a membrane.

Consider “Flag-tagged TRAM (mouse) (from UniProt Q8BJQ4 1-232)”, for which the binding entry is listed as “binds”. Consider “Myc-tagged MyD88 (mouse) (from UniProt P22366 1-296)”, for which the binding entry is listed as “binds”.

The values are drawn from article PMC2561291.
